The supplement of paper PMC12009310
Where a name gives a salt, the structure may show the parent alone. ± gives the standard deviation of the averaged measurements. Some of the results follow. Baselines shift from plate to plate; read single values as rough.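 The cells are a mouse kidney inner medullary collecting duct line, silenced either for the ciliary gene Rpgrip1l or with a non-targeting control siRNA.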

Tested on: mIMCD3
Test: robust z score of cilia incidence (% cells with single cilium) vs plate controls; higher = more ciliated cells
Conditions: 10 µM; 48 h; siRNA: siScr

Compound	robust z score of cilia incidence
Oc1cc2c(cc1O)CN(C(=S)NCCc1ccc(Cl)cc1)CCC2 [Capsazepine]	-40.5 ± 8.3
CNCCCCOc1ccccc1Cc1ccccc1 [Bifemelane hydrochloride]	-31.5 ± 9.2
COc1ccc(Br)cc1S(=O)(=O)NC(=O)/C=C/c1ccccc1Cc1ccc2ccccc2c1	-25.4 ± 16
CC#CCOC(=O)C1=CCCN(C)C1 [Arecaidine but-2-ynyl ester tosylate]	0.8 ± 1.7
O=C(O)Cc1nn(Cc2ccc(Br)cc2F)c(=O)c2ccccc12 [Statil]	-1.55 ± 1.4
CN1Cc2c(C(=O)OC(C)(C)C)ncn2-c2ccsc2C1=O	-5.28 ± 3.8
O=C1c2ccccc2CCC1CNCCc1ccc(O)cc1 (stereo not given) [HEAT hydrochloride]	-1.6 ± 0.54
COc1ccc(-c2nc(C(=O)N3CCN(C)CC3)sc2-c2ccc(OC)cc2)cc1	-37.2 ± 10
Cc1ccccc1C(=O)c1ccc(Nc2ccc(Br)cc2N)cc1Cl	-26.9 ± 18
Cc1ccc(NC2=CC(=O)c3sc(C)nc3C2=O)cc1 [Ryuvidine]	-61.5 ± 12
CCc1c2c(nc3ccc(OC(=O)N4CCC(N5CCCCC5)CC4)cc13)-c1cc3c(c(=O)n1C2)COC(=O)[C@]3(O)CC	-17.6 ± 5.6
CC(Cc1ccccc1)(NC(=O)CN)c1ccccc1 (stereo not given) [Remacemide hydrochloride]	0.305 ± 5
N=C(N)SCCc1ccc(OCc2ccc([N+](=O)[O-])cc2)cc1 [KB-R7943 mesylate]	-48.9 ± 11
Cc1ccc(NC(=O)C(C)C)cc1C1CCN(Cc2ccc(Oc3ccc(F)c(F)c3)cc2)CC1	-20.9 ± 9.5
Cc1cccc(CCN2CCC(C(=O)c3ccc(NS(C)(=O)=O)cc3)CC2)n1 [E-4031 dihydrochloride]	-27.6 ± 17

Looked up above.
Value of Oc1cc2c(cc1O)CN(C(=S)NCCc1ccc(Cl)cc1)CCC2 [Capsazepine] under robust z score of cilia incidence: -40.5 ± 8.3
Value of COc1ccc(Br)cc1S(=O)(=O)NC(=O)/C=C/c1ccccc1Cc1ccc2ccccc2c1 under robust z score of cilia incidence: -25.4 ± 16
